# This is one part of the list.
# What was measured:
# Experiment in all cases: glycan array binding signal (z-score within array); higher = stronger binding
# Settings in all cases: glycan notation: IUPAC condensed, linker removed
# [1] = molecular target: Neu5Ac(a2-6)Gal(b1-4)GlcNAc(b1-3)Gal(b1-4)GlcNAc(b1-3)GalNAc
# How it was run: (§1)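 Glycan array data came from 3228 arrays in the Consortium for Functional Glycomics database, and only arrays with an available protein sequence were kept. Glycan names were put into IUPAC-condensed notation, and columns mapping to the same glycan were averaged. The binding signal is a within-array Z-score, averaged across arrays of one protein sequence run at different concentrations or buffers and across linkers. A negative Z-score can be read as non-binding.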
# [2] = molecular target: Neu5Ac(a2-6)Gal(b1-4)GlcNAc(b1-3)Gal(b1-4)GlcNAc(b1-3)[Neu5Ac(a2-6)Gal(b1-4)GlcNAc(b1-3)Gal(b1-4)GlcNAc(b1-6)]GalNAc
# How it was run: as §1
# [3] = molecular target: Neu5Ac(a2-6)Gal(b1-4)GlcNAc(b1-3)Gal(b1-4)GlcNAc(b1-6)[Gal(b1-3)]GalNAc
# How it was run: as §1
# [4] = molecular target: Neu5Ac(a2-6)Gal(b1-4)GlcNAc(b1-3)Gal(b1-4)[Fuc(a1-3)]GlcNAc(b1-3)Gal(b1-4)[Fuc(a1-3)]GlcNAc
# How it was run: as §1
# [5] = molecular target: Neu5Ac(a2-6)Gal(b1-4)GlcNAc(b1-3)GalNAc
# How it was run: as §1
# [6] = molecular target: Neu5Ac(a2-6)Gal(b1-4)GlcNAc(b1-3)[Neu5Ac(a2-6)Gal(b1-4)GlcNAc(b1-6)]GalNAc
# How it was run: as §1
# [7] = molecular target: Neu5Ac(a2-6)Gal(b1-4)GlcNAc(b1-6)GalNAc
# How it was run: as §1
# [8] = molecular target: Neu5Ac(a2-6)Gal(b1-4)GlcNAc(b1-6)[Gal(b1-3)GlcNAc(b1-3)]Gal(b1-4)Glc
# How it was run: as §1
# [9] = molecular target: Neu5Ac(a2-6)Gal(b1-4)GlcNAc(b1-6)[Gal(b1-3)]GalNAc
# How it was run: as §1
# [10] = molecular target: Neu5Ac(a2-6)Gal(b1-4)GlcNAc6S
# How it was run: as §1
# [11] = molecular target: Neu5Ac(a2-6)GalNAc
# How it was run: as §1
# [12] = molecular target: Neu5Ac(a2-6)GalNAc(b1-4)GlcNAc
# How it was run: as §1
# [13] = molecular target: Neu5Ac(a2-6)GalNAc(b1-4)GlcNAc6S
# How it was run: as §1
# [14] = molecular target: Neu5Ac(a2-6)GlcNAc(b1-4)GlcNAc
# How it was run: as §1
# [15] = molecular target: Neu5Ac(a2-6)GlcNAc(b1-4)GlcNAc(b1-4)GlcNAc
# How it was run: as §1
# [16] = molecular target: Neu5Ac(a2-8)Neu5Ac
# How it was run: as §1
# [17] = molecular target: Neu5Ac(a2-8)Neu5Ac(a2-3)Gal(b1-3)GalNAc(b1-4)[Neu5Ac(a2-3)]Gal(b1-4)Glc
# How it was run: as §1
# [18] = molecular target: Neu5Ac(a2-8)Neu5Ac(a2-3)Gal(b1-3)GalNAc(b1-4)[Neu5Ac(a2-8)Neu5Ac(a2-3)]Gal(b1-4)Glc
# How it was run: as §1
# [19] = molecular target: Neu5Ac(a2-8)Neu5Ac(a2-3)Gal(b1-4)Glc
# How it was run: as §1
# [20] = molecular target: Neu5Ac(a2-8)Neu5Ac(a2-3)Gal(b1-4)GlcNAc
# How it was run: as §1
# [21] = molecular target: Neu5Ac(a2-8)Neu5Ac(a2-3)[Gal(b1-3)GalNAc(b1-4)]Gal(b1-4)Glc
# How it was run: as §1
# [22] = molecular target: Neu5Ac(a2-8)Neu5Ac(a2-3)[GalNAc(b1-4)]Gal(b1-4)Glc
# How it was run: as §1
# [23] = molecular target: Neu5Ac(a2-8)Neu5Ac(a2-8)Neu5Ac
# How it was run: as §1
# [24] = molecular target: Neu5Ac(a2-8)Neu5Ac(a2-8)Neu5Ac(a2-3)Gal(b1-4)Glc
# How it was run: as §1
# [25] = molecular target: Neu5Ac(a2-8)Neu5Ac(a2-8)Neu5Ac(a2-3)[Gal(b1-3)GalNAc(b1-4)]Gal(b1-4)Glc
# How it was run: as §1
# [26] = molecular target: Neu5Ac(a2-8)Neu5Ac(a2-8)Neu5Ac(a2-3)[GalNAc(b1-4)]Gal(b1-4)Glc
# How it was run: as §1
# [27] = molecular target: Neu5Ac(a2-8)Neu5Ac(a2-8)Neu5Ac(a2-8)Neu5Ac(a2-3)[GalNAc(b1-4)]Gal(b1-4)Glc
# How it was run: as §1
# [28] = molecular target: Neu5Ac(a2-8)Neu5Gc(a2-3)Gal(b1-4)GlcNAc
# How it was run: as §1
# [29] = molecular target: Neu5Ac(b2-6)Gal(b1-4)GlcNAc
# How it was run: as §1
# [30] = molecular target: Neu5Ac(b2-6)GalNAc
# How it was run: as §1
# [31] = molecular target: Neu5Ac9Ac(a2-3)Gal(b1-3)GlcNAc
# How it was run: as §1
# [32] = molecular target: Neu5Ac9Ac(a2-3)Gal(b1-4)GlcNAc
# How it was run: as §1
# [33] = molecular target: Neu5Ac9Ac(a2-6)Gal(b1-4)GlcNAc
# How it was run: as §1
# [34] = molecular target: Neu5Gc(a2-3)Gal(b1-3)GlcNAc
# How it was run: as §1
# [35] = molecular target: Neu5Gc(a2-3)Gal(b1-3)[Fuc(a1-4)]GlcNAc
# How it was run: as §1
# [36] = molecular target: Neu5Gc(a2-3)Gal(b1-4)Glc
# How it was run: as §1
# [37] = molecular target: Neu5Gc(a2-3)Gal(b1-4)GlcNAc
# How it was run: as §1
# [38] = molecular target: Neu5Gc(a2-3)Gal(b1-4)GlcNAc(b1-3)Gal(b1-4)GlcNAc(b1-2)Man(a1-3)[Neu5Gc(a2-3)Gal(b1-4)GlcNAc(b1-3)Gal(b1-4)GlcNAc(b1-2)Man(a1-6)]Man(b1-4)GlcNAc(b1-4)GlcNAc
# How it was run: as §1
# [39] = molecular target: Neu5Gc(a2-3)Gal(b1-4)[Fuc(a1-3)]GlcNAc
# How it was run: as §1
# [40] = molecular target: Neu5Gc(a2-6)Gal(b1-4)GlcNAc
# How it was run: as §1
# [41] = molecular target: Neu5Gc(a2-6)GalNAc
# How it was run: as §1
# [42] = molecular target: Neu5Gc(a2-8)Neu5Ac(a2-3)Gal(b1-4)GlcNAc
# How it was run: as §1
# [43] = molecular target: Neu5Gc(a2-8)Neu5Gc(a2-3)Gal(b1-4)GlcNAc
# How it was run: as §1
# [44] = molecular target: Neu5Gc(a2-8)Neu5Gc(a2-3)Gal(b1-4)GlcNAc(b1-3)Gal(b1-4)GlcNAc
# How it was run: as §1
# [45] = molecular target: Neu5Gc(a2-8)Neu5Gc(a2-6)Gal(b1-4)GlcNAc
# How it was run: as §1
# [46] = molecular target: Neu5Gc(b2-6)Gal(b1-4)GlcNAc
# How it was run: as §1
binder,measurement,setting,value
HFR-3 (Triticum aestivum) (protein) MKGLLLCALALAFAAVTTHAQLQSCPTRCGKQADGMECPNNLCCSKDGYCGLGVDYCSAGAGCQSGACYDNKICGAQANGTLCRNNHCCSSGGRCGYGREYCSNGCQGGPCWADLKCGHLDNGKLCPNNLCCSQYGYCGLGPEFCGTGCQNGACSTDKPCGNKANGAPCTNNYCCSQYGSCGLGKDYCGTGCQNGACN,glycan array binding signal (z-score),[1],-0.559
same,glycan array binding signal (z-score),[2],0.943
same,glycan array binding signal (z-score),[3],0.517
same,glycan array binding signal (z-score),[4],-0.623
same,glycan array binding signal (z-score),[5],-1.71
same,glycan array binding signal (z-score),[6],-1.33
same,glycan array binding signal (z-score),[7],1.13
same,glycan array binding signal (z-score),[8],-0.251
same,glycan array binding signal (z-score),[9],0.02
same,glycan array binding signal (z-score),[10],-0.691
same,glycan array binding signal (z-score),[11],-0.572
same,glycan array binding signal (z-score),[12],-0.965
same,glycan array binding signal (z-score),[13],-0.863
same,glycan array binding signal (z-score),[14],-1.25
same,glycan array binding signal (z-score),[15],-0.465
same,glycan array binding signal (z-score),[16],0.138
same,glycan array binding signal (z-score),[17],-1.43
same,glycan array binding signal (z-score),[18],0.674
same,glycan array binding signal (z-score),[19],-1.54
same,glycan array binding signal (z-score),[20],-0.058
same,glycan array binding signal (z-score),[21],-0.252
same,glycan array binding signal (z-score),[22],-0.57
same,glycan array binding signal (z-score),[23],0.012
same,glycan array binding signal (z-score),[24],-1.8
same,glycan array binding signal (z-score),[25],0.423
same,glycan array binding signal (z-score),[26],-0.316
same,glycan array binding signal (z-score),[27],-0.885
same,glycan array binding signal (z-score),[28],-0.994
same,glycan array binding signal (z-score),[29],0.213
same,glycan array binding signal (z-score),[30],-0.685
same,glycan array binding signal (z-score),[31],0.493
same,glycan array binding signal (z-score),[32],-0.326
same,glycan array binding signal (z-score),[33],-0.973
same,glycan array binding signal (z-score),[34],-0.969
same,glycan array binding signal (z-score),[35],0.891
same,glycan array binding signal (z-score),[36],-0.496
same,glycan array binding signal (z-score),[37],1.68
same,glycan array binding signal (z-score),[38],-0.36
same,glycan array binding signal (z-score),[39],-1.29
same,glycan array binding signal (z-score),[40],1.39
same,glycan array binding signal (z-score),[41],-0.676
same,glycan array binding signal (z-score),[42],-0.504
same,glycan array binding signal (z-score),[43],-0.961
same,glycan array binding signal (z-score),[44],1.02
same,glycan array binding signal (z-score),[45],0.199
same,glycan array binding signal (z-score),[46],0.001

# Reprinted at random: two entries already listed.
binder,measurement,setting,value
HFR-3 (Triticum aestivum) (protein) MKGLLLCALALAFAAVTTHAQLQSCPTRCGKQADGMECPNNLCCSKDGYCGLGVDYCSAGAGCQSGACYDNKICGAQANGTLCRNNHCCSSGGRCGYGREYCSNGCQGGPCWADLKCGHLDNGKLCPNNLCCSQYGYCGLGPEFCGTGCQNGACSTDKPCGNKANGAPCTNNYCCSQYGSCGLGKDYCGTGCQNGACN,glycan array binding signal (z-score),[15],-0.465
same,glycan array binding signal (z-score),[21],-0.252

# — the supplement of paper PMC8728848
